Laboratory results: PubChem BioAssay AID1224828 (NIAID, 2016)
Shown is an unselected part of about 17,000 deposited reagents. Over the whole deposit, 762 (4.5%) are marked active. 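Active calls include both raised and lowered p65 entry, mostly lowered; wells with fewer than 50 cells lack a z-score.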 The raw values are shown without normalisation. A number with no mark means an inactive call. Some reagents were tested in more than one well and are listed for each.

Assay: 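Knock-downs that increase or decrease LPS-induced p65 nuclear translocation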 (primary screen)
Cell system: mouse RAW264.7 G9 macrophage reporter cells (GFP-p65, Tnf promoter-mCherry)
Reagents: siRNA pool against mouse genes, 100 nM
Duration: 2 days siRNA transfection, then 40 min LPS before fixation
Challenge: LPS (Salmonella minnesota R595) at 10 ng/ml
Read-out: 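Microscopy ratio of nuclear to perinuclear-ring GFP-p65 signal, scaled to the plate median; gene score is the average of two replicate robust z-scores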
Scale: p65 translocation robust z-score: higher = more nuclear NF-kappaB p65 after LPS than the plate median; nuclear/cytoplasmic p65 ratio: higher = more nuclear NF-kappaB p65
Rule for the call: 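Active if robust z is above 3.3 (negative regulators) or below -1.56, the Tlr4 control median (positive regulators); activity score 50 or more; control wells not called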
Calls: active = hit (p65 shift raised or lowered); inactive = no clear change

| gene | p65 translocation robust z-score | nuclear/cytoplasmic p65 ratio, rep 1 | nuclear/cytoplasmic p65 ratio, rep 2 | low cell count flag |
| --- | --- | --- | --- | --- |
| Acot5 (GeneID 217698) | -0.03 | 1.57 | 1.84 | enough cells to score |
| Ncam1 (GeneID 17967) | -0.61 | 1.29 | 1.33 | enough cells to score |
| Tex261 (GeneID 21766) | 0.79 | 1.48 | 1.27 | enough cells to score |
| Slc6a9 (GeneID 14664) | – | 1.38 | 1.17 | fewer than 50 cells per well; well left out of scoring |
| Bcor (GeneID 71458) | 1.06 | 1.66 | 1.58 | enough cells to score |
| Gli2 (GeneID 14633) | 0.14 | 1.56 | 1.29 | enough cells to score |
| Mrpl43 (GeneID 94067) | 1.34 | 2 | 1.8 | enough cells to score |
| Nuak2 (GeneID 74137) | 1.27 | 1.69 | 1.55 | enough cells to score |
| Nuak2 (GeneID 74137) | – | 1.36 | 1.16 | fewer than 50 cells per well; well left out of scoring |
| Socs7 (GeneID 192157) | -0.48 | 1.46 | 1.5 | enough cells to score |
| Alppl2 (GeneID 11650) | -0.62 | 1.56 | 1.5 | enough cells to score |
| Orai2 (GeneID 269717) | – | 1.12 | 1.33 | fewer than 50 cells per well; well left out of scoring |
| Tmem161b (GeneID 72745) | – | 1.12 | 1.1 | fewer than 50 cells per well; well left out of scoring |
| Cdr2 (GeneID 12585) | 1.24 | 1.62 | 1.55 | enough cells to score |
| Zfp207 (GeneID 22680) | -0.14 | 1.39 | 1.23 | enough cells to score |
| Phlda1 (GeneID 21664) | – | 1.56 | 1.11 | fewer than 50 cells per well; well left out of scoring |
| Or5k3 (GeneID 259000) | -1.77 (active) | 1.34 | 1.18 | enough cells to score |
| Mettl22 (GeneID 239706) | -0.12 | 1.65 | 1.72 | enough cells to score |
| Tmem125 (GeneID 230678) | – | 1.23 | 1.15 | fewer than 50 cells per well; well left out of scoring |

Records listed so far whose gene name starts with T or t (3):
| gene | p65 translocation robust z-score | nuclear/cytoplasmic p65 ratio, rep 1 | nuclear/cytoplasmic p65 ratio, rep 2 | low cell count flag |
| --- | --- | --- | --- | --- |
| Tex261 (GeneID 21766) | 0.79 | 1.48 | 1.27 | enough cells to score |
| Tmem161b (GeneID 72745) | – | 1.12 | 1.1 | fewer than 50 cells per well; well left out of scoring |
| Tmem125 (GeneID 230678) | – | 1.23 | 1.15 | fewer than 50 cells per well; well left out of scoring |

The results go on.
| gene | p65 translocation robust z-score | nuclear/cytoplasmic p65 ratio, rep 1 | nuclear/cytoplasmic p65 ratio, rep 2 | low cell count flag |
| --- | --- | --- | --- | --- |
| Unc45a (GeneID 101869) | -0.14 | 1.25 | 1.56 | enough cells to score |
| Ubb (GeneID 22187) | -0.93 | 1.37 | 1.38 | enough cells to score |
| Foxi2 (GeneID 270004) | -0.34 | 1.47 | 1.53 | enough cells to score |
| Ranbp1 (GeneID 19385) | -0.76 | 1.42 | 1.4 | enough cells to score |
| Zgpat (GeneID 229007) | 0.28 | 1.63 | 1.87 | enough cells to score |
| Inhba (GeneID 16323) | 0.86 | 1.58 | 1.5 | enough cells to score |
| Or5p53 (GeneID 258771) | 0.17 | 1.44 | 1.31 | enough cells to score |
| Pramel1 (GeneID 83491) | -0.61 | 1.21 | 1.23 | enough cells to score |
| Btnl1 (GeneID 100038862) | 1.99 | 1.87 | 1.9 | enough cells to score |
| Coro7 (GeneID 78885) | 1.61 | 1.72 | 1.71 | enough cells to score |
| Arhgef25 (GeneID 52666) | -0.81 | 1.45 | 1.65 | enough cells to score |
| Or4d10b (GeneID 258676) | -0.15 | 1.6 | 1.4 | enough cells to score |
| Ptrh1 (GeneID 329384) | 0.52 | 1.49 | 1.31 | enough cells to score |
| Dnai3 (GeneID 242253) | – | 1.25 | 1.29 | fewer than 50 cells per well; well left out of scoring |
| Hs3st2 (GeneID 195646) | – | 0.952 | 1.18 | fewer than 50 cells per well; well left out of scoring |
| Zfp629 (GeneID 320683) | -1.55 | 1.32 | 1.33 | enough cells to score |
| Supt20 (GeneID 56790) | -1.58 (active) | 1.27 | 1.15 | enough cells to score |
| Kif22 (GeneID 110033) | -1.66 (active) | 1.26 | 1.16 | enough cells to score |
| Tmem208 (GeneID 66320) | -0.85 | 1.4 | 1.31 | enough cells to score |
| Krtap6-5 (GeneID 68484) | 0.81 | 1.66 | 1.54 | enough cells to score |
| Tspan32 (GeneID 27027) | -0.73 | 1.33 | 1.37 | enough cells to score |
